Results are given in words; binding and its absence hold for the method and conditions named. Binding seen in cells or lysates may run through a third protein. Some binding calls cover weakened binding; strength is not graded here. Sequences can lack the tags named with a protein.
Target: T1, flag-labelled MATN2 (mouse) (UniProt O08746)
T1 sequence: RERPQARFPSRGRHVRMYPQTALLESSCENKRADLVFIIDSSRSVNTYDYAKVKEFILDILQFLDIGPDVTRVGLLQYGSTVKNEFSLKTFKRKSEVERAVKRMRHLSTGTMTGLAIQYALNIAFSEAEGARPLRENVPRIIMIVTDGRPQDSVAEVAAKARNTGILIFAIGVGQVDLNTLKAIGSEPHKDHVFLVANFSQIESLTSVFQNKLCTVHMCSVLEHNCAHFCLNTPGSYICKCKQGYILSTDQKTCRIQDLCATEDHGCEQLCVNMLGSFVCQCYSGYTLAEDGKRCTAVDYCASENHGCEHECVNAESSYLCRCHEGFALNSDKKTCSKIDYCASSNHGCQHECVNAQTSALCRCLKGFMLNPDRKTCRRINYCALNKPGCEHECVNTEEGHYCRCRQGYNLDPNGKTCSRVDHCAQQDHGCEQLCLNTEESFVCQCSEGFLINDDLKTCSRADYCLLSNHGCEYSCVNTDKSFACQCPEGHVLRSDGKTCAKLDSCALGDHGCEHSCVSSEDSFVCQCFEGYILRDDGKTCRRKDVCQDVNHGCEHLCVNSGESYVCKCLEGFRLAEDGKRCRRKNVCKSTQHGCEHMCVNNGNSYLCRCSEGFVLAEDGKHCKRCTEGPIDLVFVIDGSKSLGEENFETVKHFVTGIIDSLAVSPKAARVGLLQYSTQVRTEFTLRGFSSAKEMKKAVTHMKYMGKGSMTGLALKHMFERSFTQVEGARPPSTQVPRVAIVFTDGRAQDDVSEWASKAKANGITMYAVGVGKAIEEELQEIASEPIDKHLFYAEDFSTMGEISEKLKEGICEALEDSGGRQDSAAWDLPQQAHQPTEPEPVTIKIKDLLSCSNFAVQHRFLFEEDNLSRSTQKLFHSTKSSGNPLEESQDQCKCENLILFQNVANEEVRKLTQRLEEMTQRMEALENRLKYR
Assay: co-IP; 293FT cells; lysis in RIPA with protease inhibitor cocktail and PMSF; supernatant incubated overnight at 4°C with anti-Flag or anti-HA magnetic beads; western blotting

binding: binds
Substance: HA-labelled EGFR (from UniProt Q01279 25-1210) (receptor)

Source: article PMC10212716
